# PubChem BioAssay AID504467 (National Center for Advancing Translational Sciences (NCATS), 2011)
# Out of some 330,000 compounds screened, about 7,700 (2.3%) were called active. This list was built around the results that the source calls inconclusive (neither active nor inactive); the mix of calls is not that of the screen. Calls follow the shape of the dose curve; as a rule, active = well fitted inhibition curve with a large enough effect; inconclusive = small, poorly fitted or top-dose-only effect, or effect the other way; inactive = flat fitted curve, though single readings scatter. Potencies beside an inconclusive call are fits to weak or partial responses and may not hold up.
# Assay: qHTS screen for small molecules that inhibit ELG1-dependent DNA repair in human embryonic kidney (HEK293T) cells expressing luciferase-tagged ELG1; also: nearly all actives have a fitted effect of over 55% in size
# Settings: HEK293T ELG1-luciferase reporter, luminescence, 16 h, DNA damage induced by 5-fluorouridine; activity change, negative = inhibition: at 46.1 µM (top of the series)
# In short: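 5-Fluorouridine DNA damage + compound/DMSO, 2,000 cells/well, 16 h, 37 °C/5% CO2. ONE-Glo, 30 min RT, luminescence. Readout = decrease in reporter signal.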
# % is scaled to controls: 0 for no effect and ±100 for the full control effect; potency is read from the fitted curve at half-maximal effect.
Structure (SMILES),Potency,"activity change, negative = inhibition"
Cc1ccccc1CNC(=O)C1CCC(=O)N(C2CCCCCC2)C1 (stereo not drawn),inactive,–
COCCCC1CCN(C(=O)C2CCC(=O)N(CCc3ccccc3)C2)CC1 (stereo not drawn),"inconclusive: 20.6 µM [activator, partial curve]",–
COc1ccc(OC)c(NC(=O)CN2CCC(C(=O)c3ccc(C)cc3)CC2)c1,active: 20.6 µM,–
CC(=O)Nc1ccc(S(=O)(=O)N2CCCC(C(=O)N3CCN(c4ccccc4)CC3)C2)cc1 (stereo not drawn),active: 20.6 µM,–
O=C(Nc1cnc2ccccn2c1=O)c1ccc(F)cc1,"inconclusive: 10.3 µM [activator, partial curve]",–
CCc1c(C)nc2ncnn2c1N1CCCC(C(=O)NCc2ccco2)C1 (stereo not drawn),"inconclusive: 32.6 µM [inhibitor, partial curve, poor fit]",–
CCN(CC)S(=O)(=O)c1ccc2c(c1)c(=O)c(C(=O)NCCc1ccc(OC)c(OC)c1)cn2C,inactive,–
CC(C)C1Oc2ccccc2N(CC(=O)NC2CCCCC2)C1=O (stereo not drawn),inactive,–
Cc1ccc(S(=O)(=O)c2c(C)cc(C)nc2N2CCOCC2)cc1,–,inconclusive: 387% [activator]
O=c1c2ccccc2nnn1CSc1nnc(-c2ccco2)o1,"inconclusive: 23.1 µM [activator, single point]",–
COc1ccccc1OCC(=O)Nc1ccc(S(=O)(=O)N2CCCCCC2)cc1,"inconclusive: 23.1 µM [inhibitor, partial curve, poor fit]",–
Brc1ccc(-c2nnc(SCCC3OCCCO3)o2)cc1,"inconclusive: 14.6 µM [activator, single point]",–
Cc1ccc(-n2nnnc2-c2nc3ccccc3s2)cc1,"inconclusive: 29.1 µM [activator, single point]",–
COc1ccc2nc(SCC(=O)NC3CC3)c(C#N)cc2c1,"inconclusive: 16.4 µM [activator, partial curve]",–
O=C(COc1ccccc1C(=O)c1cnn(-c2ccccc2)c1)Nc1ccc2ccccc2c1,"inconclusive: 2.59 µM [activator, partial curve, poor fit]",–
CCN1CCc2nc(NC(=O)c3ccc(S(=O)(=O)N(C)C)cc3)sc2C1,"inconclusive: 18.3 µM [activator, partial curve, poor fit]",–
COc1ccc(-c2ocnc2C(=O)NCc2nn(-c3ccccc3)nc2C)cc1,"inconclusive: 7.3 µM [inhibitor, partial curve]",–
CCCCc1nc2ccccc2c(=O)n1NC(=O)c1c(O)c2c(n(CC(C)C)c1=O)CCCC2,"inconclusive: 6.51 µM [inhibitor, single point]",–
CCn1c(SCC(=O)NC2CC2)nnc1-c1ccc(C)cc1,inactive,–
CCOc1ccccc1CN1CCNC(=O)C1CC(=O)NCCc1ccccn1 (stereo not drawn),inactive,–
O=[N+]([O-])c1cc(Cl)ccc1-c1nc(-c2ccncc2)no1,"inconclusive: 16.4 µM [activator, partial curve]",–
Cn1nnnc1SCC1=C(C(=O)O)N2C(=O)C(NC(=O)Cn3nc(C(F)F)cc3C3CC3)C2SC1 (stereo not drawn),inactive,–
O=C(Nc1nccs1)c1ccc([N+](=O)[O-])cc1,"inconclusive: 14.6 µM [activator, partial curve]",–

# 4 structures from above, sorted by SMILES length, smallest number first:
Structure (SMILES),Potency,"activity change, negative = inhibition"
Brc1ccc(-c2nnc(SCCC3OCCCO3)o2)cc1,"inconclusive: 14.6 µM [activator, single point]",–
CCn1c(SCC(=O)NC2CC2)nnc1-c1ccc(C)cc1,inactive,–
Cc1ccccc1CNC(=O)C1CCC(=O)N(C2CCCCCC2)C1 (stereo not drawn),inactive,–
COc1ccccc1OCC(=O)Nc1ccc(S(=O)(=O)N2CCCCCC2)cc1,"inconclusive: 23.1 µM [inhibitor, partial curve, poor fit]",–

# (cont.)

Structure (SMILES),Potency,"activity change, negative = inhibition"
Cc1ccnc(NC(=O)C2CCCN(c3ncnc4c3nc3n4CCCCC3)C2)c1 (stereo not drawn),"inconclusive: 2.06 µM [inhibitor, full curve]",–
Cn1c2ccc(F)cc2c2nnc(SCCN3CCOCC3)nc21,"inconclusive: 29.1 µM [activator, single point]",–
c1coc(CNc2nc3nonc3nc2NCc2ccco2)c1,inactive,–
COc1ccc(OC)c(/C=C/c2c([N+](=O)[O-])c(=O)n(C)c(=O)n2C)c1,"inconclusive: 14.6 µM [inhibitor, partial curve]",–
S=C(Nc1ccc(Br)cc1Cl)NN1CCOCC1,inactive,–
CC(C)Oc1ccc(C(=O)Nc2ccc(C(F)(F)F)n(C)c2=O)cc1,"inconclusive: 16.4 µM [activator, single point]",–
CC1=NNC(=O)C1CC(=O)N/N=C/C(C)=C/c1ccccc1 (stereo not drawn),inactive,–
CCOC(=O)c1nnn(-c2nonc2N)c1COc1cc(C)c(Cl)c(C)c1,"inconclusive: 11.6 µM [inhibitor, partial curve, poor fit]",–
Cn1ncc(Br)c1C(=O)N/N=C/c1cccc(OC2CSC2)c1,active: 4.11 µM,–
CC(=O)Nc1ccccc1C(=O)C(=O)O,inactive,–
COc1ccc(CN(Cc2ccccn2)C(=O)CN2C(=O)C(C)Oc3ccccc32)cc1 (stereo not drawn),"inconclusive: 20.6 µM [inhibitor, single point]",–
CCN(CC)C(=O)C1CCN(Cc2cccc(OCc3ccccc3)c2)CC1,"inconclusive: 3.26 µM [inhibitor, partial curve]",–
CCC(=O)Nc1ccc(Cl)c(NC(=S)NC(=O)c2cc3ccccc3o2)c1,"inconclusive: 18.4 µM [activator, partial curve, poor fit]",–
COCC(=O)N1CCCC(CNS(=O)(=O)c2ccc(OC)cc2)C1 (stereo not drawn),inactive,–
O=C(CCSc1nccn1Cc1ccccc1)N1CCOCC1,"inconclusive: 29.1 µM [activator, single point]",–
Cc1ccc(C)c(NC(=O)COC(=O)CNC(=O)C2CCCCC2)c1,"inconclusive: 18.3 µM [activator, partial curve, poor fit]",–
O=C(Nc1ccc(S(=O)(=O)N2CCCC2)cc1)c1cc(F)c(F)cc1Cl,active: 14.6 µM,–
COc1ccc(NC(=O)CSc2nnc(NC(=O)c3ccc(S(=O)(=O)N4CCOCC4)cc3)s2)cc1,"inconclusive: 16.4 µM [activator, partial curve]",–
S=C1SCN(CC2CC2)CN1CC1CC1,inactive,–
C=CC[n+]1c(/C=C2\C=Cc3cc(C)ccc3N2CC)ccc2ccccc21,"inconclusive: 2.59 µM [inhibitor, partial curve]",–
O=C(Cn1ncc2c([nH]c3ccccc32)c1=O)N1CCc2ccccc2C1,"inconclusive: 20.6 µM [activator, partial curve, poor fit]",–
COc1cccc(-c2onc3ccc(C4(C)OCCO4)cc23)c1,"inconclusive: 14.6 µM [inhibitor, single point]",–
Cc1ccc(CNS(=O)(=O)c2cc3c4c(c2)CCN4C(=O)CC3)cc1,inactive,–

Structure (SMILES),Potency,"activity change, negative = inhibition"
C=C1[C@@H](O)[C@@H]2O[C@]3(CC[C@H](/C=C/[C@@H](C)[C@@H]4CC(C)=CC5(O[C@H](C[C@@](C)(O)C(=O)OC)CC[C@H]5O)O4)O3)CC[C@H]2O[C@@H]1[C@@H](O)C[C@H](C)[C@H]1OC2(CCCCO2)CC[C@H]1C (stereo partly drawn),"inconclusive: 32.6 µM [inhibitor, single point]",–
Cc1ccsc1C(=O)NCc1ccc(F)cc1,inactive,–
COc1ccc(-n2c(=S)[nH]c3cc(C(=O)Nc4cc(C(N)=O)ccc4OC)ccc3c2=O)c(OC)c1,inactive,–
O=S(=O)(c1ccc2c(c1)OCCO2)N1CCC(n2nnc3cc(C(F)(F)F)ccc32)CC1,"inconclusive: 29.1 µM [inhibitor, single point]",–
Cn1c2c(c(=O)n(C)c1=O)C(C(F)(F)F)(C(F)(F)F)N=C(C1CCCCC1)N2,"inconclusive: 23.1 µM [inhibitor, partial curve]",–
COc1ccc(-c2cc(C(=O)Nc3cc(C)n(Cc4ccc(Cl)cc4)n3)no2)cc1OC,"inconclusive: 1.3 µM [inhibitor, full curve]",–
COc1ccc2[nH]c(=S)cc(C)c2c1,"inconclusive: 29.1 µM [activator, single point]",–
Cc1ccc(O)c(N=CC2=C(O)c3ccccc3C2=O)c1,"inconclusive: 1.58 µM [activator, single point]",–
CC(C)(C)c1ccc(OCc2cnc(Cl)s2)cc1,"inconclusive: 16.4 µM [activator, partial curve]",–
CC(C)NC(=O)Nc1cccc2c1O[C@H](CN(C)S(C)(=O)=O)[C@@H](C)CN([C@H](C)CO)C2=O,inactive,–
O=C(NCC(c1ccco1)N1CCN(c2ccccc2)CC1)c1ccco1 (stereo not drawn),"inconclusive: 18.3 µM [activator, single point]",–
Cc1ccc2nc(C)c3c(c2c1)N(c1ccc(F)cc1)CC3,"inconclusive: 7.3 µM [inhibitor, partial curve, poor fit]",–
CCOc1ccc(NC(=O)Nc2cccc(C)n2)cc1,"inconclusive: 20.6 µM [activator, partial curve]",–
CCOc1ccc(C(O)Cn2c(=N)n(CCN3CCCCC3)c3ccccc32)cc1 (stereo not drawn),"inconclusive: 20.6 µM [inhibitor, partial curve, poor fit]",–
O=C(NNC(=O)c1cccnc1SCc1cccc([N+](=O)[O-])c1)c1ccccn1,"inconclusive: 0.164 µM [inhibitor, full curve, poor fit]",–
CCCCc1ccc(NC(=O)CC(C)=O)cc1,"inconclusive: 18.4 µM [activator, single point]",–
Nc1cc[n+](CC(=O)c2ccc3c(c2)OCCO3)cc1,inactive,–
COc1cccc(/C=N/NC(=O)c2ccoc2C)c1O,"inconclusive: 10.3 µM [activator, partial curve]",–
Fc1ccc(NC(=S)NC2CCN(Cc3ccccc3)CC2)cc1,inactive,–
COc1ccc(Cc2[nH]n3c(=O)cc(C)nc3c2-c2ccccc2)cc1,"inconclusive: 20.6 µM [inhibitor, single point]",–
O=C(CC1C[C@H](C(=O)N2CCOCC2)[C@@]2(CCC3CCCC3)c3[nH]c4ccccc4c3CCN2C1=O)NCC12CC3CC(CC(C3)C1)C2 (stereo partly drawn),inactive,–
COc1cccc(-c2nnc(NC(=O)c3ccccc3Br)o2)c1,"inconclusive: 32.6 µM [inhibitor, partial curve, poor fit]",–
